# Primary screen of a compound library

Protein sequences, listed by entry. Tags and fused reporters are not part of them.
UniProt E9BF75, entry or part of it: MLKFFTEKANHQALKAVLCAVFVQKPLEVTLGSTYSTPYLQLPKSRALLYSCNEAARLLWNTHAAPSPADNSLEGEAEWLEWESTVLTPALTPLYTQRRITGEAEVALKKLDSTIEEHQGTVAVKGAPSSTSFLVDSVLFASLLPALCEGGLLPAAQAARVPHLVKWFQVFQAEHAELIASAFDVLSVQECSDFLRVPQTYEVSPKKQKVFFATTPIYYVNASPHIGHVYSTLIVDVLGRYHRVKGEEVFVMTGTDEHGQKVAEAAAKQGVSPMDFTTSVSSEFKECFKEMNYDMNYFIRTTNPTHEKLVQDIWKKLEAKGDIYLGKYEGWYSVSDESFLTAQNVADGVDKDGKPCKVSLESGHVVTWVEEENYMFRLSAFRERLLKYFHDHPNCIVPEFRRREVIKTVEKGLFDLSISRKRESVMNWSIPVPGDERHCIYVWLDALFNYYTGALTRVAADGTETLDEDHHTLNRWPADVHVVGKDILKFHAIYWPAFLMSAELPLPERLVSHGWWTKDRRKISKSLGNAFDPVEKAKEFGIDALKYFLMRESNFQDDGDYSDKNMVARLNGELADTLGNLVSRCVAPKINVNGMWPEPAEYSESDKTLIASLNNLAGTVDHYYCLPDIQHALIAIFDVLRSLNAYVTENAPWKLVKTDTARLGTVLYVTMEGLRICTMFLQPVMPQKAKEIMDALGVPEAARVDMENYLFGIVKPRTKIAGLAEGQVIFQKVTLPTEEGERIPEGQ

The values are deposited in ChEMBL (CHEMBL3988442, “University of Dundee, Small-Polar-MMV Screening Library” (2021)).

Results are percentages, as filed.
The record does not define 0% and 100%; most values in the screen are far below 50% and negative numbers occur (in some assays of this library far below -100).
This is an unselected part of the compounds tested.

Mtb heat-shock: 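Assay on Mycobacterium tuberculosis, filed only as a heat shock assay from Cornell; the read-out is not stated. The concentration is filed as 10 mM, unlikely as a test dose, so the dose is not known. The record gives no direction; compounds that gave an IC50 in retests scored well above the rest, so higher reads as stronger inhibition. Of about 69,000 compounds tested this way, about 930 (1.4%) reached 50% or more in at least one test.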
LdMetRS: 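Methionyl-tRNA synthetase (putative), Leishmania donovani (UniProt E9BF75). Primary screen of methionyl-tRNA synthetase; the read-out is not stated. The test concentration is not given. The values are filed as inhibition. Of about 68,000 compounds tested this way, about 24 (0.035%) reached 50% or more in at least one test.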

- Cc1noc(C)c1CN(C)C(=O)c1ccc2c(c1O)OC(C)(C)C2 : Mtb heat-shock: 20.44%; LdMetRS: 5.072%
- [H][C@]12CC[C@]([H])(CN(CCC(=O)NCc3ccco3)C1)N(CC=C(C)C)C2 : Mtb heat-shock: -10.15%
- O=C1CC(c2ccncc2)C2(CCN(Cc3nccs3)CC2)N1 (configuration not stated) : Mtb heat-shock: -12.22%; LdMetRS: 9.15%
- COc1cccc(-c2cccc(N3CCC(N[C@@H]4CCOC4)CC3)c2)c1 : Mtb heat-shock: 0.9133%; LdMetRS: 12.77%
- O=C(O)C(F)(F)F.[H][C@@]12CCCO[C@]1([H])[C@H](NC(=O)c1cscn1)CN2CC1CC1 : Mtb heat-shock: 21.59%
- COCC1COCCC12CCN(S(=O)(=O)c1ccccc1C)CC2 (configuration not stated) : Mtb heat-shock: -7.547%; LdMetRS: 3.846%
- Cn1ncc2c1CCCC2NCc1cnc(-c2ccccc2)nc1 (configuration not stated) : Mtb heat-shock: -2.237%; LdMetRS: 11.11%
- CCc1cc(NC(C)(C)C)nc(N2CCOCC2)n1 : Mtb heat-shock: 17.02%; LdMetRS: 10.92%
- COc1cccc(OCC2CCCN(C(C)=O)C2)c1 (configuration not stated) : Mtb heat-shock: -5.514%; LdMetRS: 15.73%
- Cc1cc(NC(=O)CN2CCn3c(nnc3C3CC3)C2)no1 : Mtb heat-shock: 17.56%; LdMetRS: 13.4%
- O=C(O)C(F)(F)F.[H][C@]12CCN(C(=O)CC3CC3)[C@@]1([H])CC[C@H](COCc1cccc(C)n1)O2 : Mtb heat-shock: -147.8%
- O=C(NCC(=O)N1CCCC(n2cncn2)C1)OCc1ccccc1 (configuration not stated) : Mtb heat-shock: -21.96%; LdMetRS: 18.71%
- Cc1cc(CN(C)C(=O)CN2CC3(CCNCC3)OC2=O)n(C)n1 : Mtb heat-shock: 12.77%; LdMetRS: 12.41%
- Cn1ccnc1C1CCN(S(=O)(=O)c2ccc3oc(=O)[nH]c3c2)CC1 : Mtb heat-shock: -17.42%; LdMetRS: 11.14%
- O=C1CCCN1Cc1noc(-c2ccc(Cl)cc2)n1 : Mtb heat-shock: -20.55%; LdMetRS: 8.571%
- CSc1ccc(OCCN2CCNC(=O)C2C)cc1 (configuration not stated) : Mtb heat-shock: -20.33%; LdMetRS: 21.67%
- CN(C)CCOCc1nnc2n1CCN(Cc1ccsc1)C2.O=C(O)C(F)(F)F.O=C(O)C(F)(F)F : Mtb heat-shock: -20.33%
- O=C(O)C(F)(F)F.c1ccc(N2CCCC3(COCCN(c4nccs4)C3)C2)nc1 (configuration not stated) : Mtb heat-shock: -10.64%
- c1nc2c(c(NC3CCc4ncnn4C3)n1)CCC2 (configuration not stated) : Mtb heat-shock: 2.827%; LdMetRS: 8.447%
- O=C(O)[C@]12CCCN(Cc3ccccn3)[C@@H]1CCN(c1cnccn1)C2 : LdMetRS: 7.263%
- Cc1cc(C)c(C#N)c(N2CCC3(CCCN(CCO)C3=O)C2)n1 (configuration not stated) : Mtb heat-shock: -35.96%; LdMetRS: -1.858%
- CC(=O)N(Cc1ncc(C)o1)C1CCN(Cc2noc(C)n2)C1 (configuration not stated) : Mtb heat-shock: 5.433%; LdMetRS: 12.5%
- COc1ccc(C2=Nn3c(CN)nnc3-c3ccccc3C2)cc1 : Mtb heat-shock: 14.12%; LdMetRS: 29.46%
- CCc1ccc(Cn2nccc2NC(=O)C2CCS(=O)(=O)C2)cc1 (configuration not stated) : Mtb heat-shock: 12.61%; LdMetRS: 14.93%
- CC(=O)N1CCC(n2nccc2-c2cnc(N)nc2)CC1 : Mtb heat-shock: 2.029%; LdMetRS: 7.039%
- CC(=O)N1CCCC1c1cccc(Oc2ccccc2F)n1 (configuration not stated) : Mtb heat-shock: 0.1533%; LdMetRS: 5.085%
- CNc1cc(C(=O)N(C)Cc2cc(-c3cccs3)n[nH]2)ccn1 : Mtb heat-shock: -21.09%; LdMetRS: 16.05%
- Cc1ncsc1CN1C[C@@H]2COC[C@]2(CNC(=O)c2ccccc2)C1 : LdMetRS: 20.46%
- c1ccc(-c2nc(CN3CCCC3Cn3cncn3)no2)cc1 (configuration not stated) : Mtb heat-shock: 9.934%; LdMetRS: 20.22%
- O=C(O)C(F)(F)F.O=C(O)C(F)(F)F.O=C1CC(c2ccncc2)C2(CCN(Cc3ccc(F)cc3)CC2)N1 (configuration not stated) : Mtb heat-shock: -23.72%
- COCCc1noc(CN(C)C2CCCN(c3cccnn3)C2)n1 (configuration not stated) : Mtb heat-shock: -29.79%; LdMetRS: 6.024%
- NC(=O)CCN(C(=O)c1cccc2c1OCO2)c1ccccc1 : Mtb heat-shock: 5.688%; LdMetRS: 9.408%
- CCCc1nc(N2CC[C@@H](c3ccc4c(c3)OCO4)[C@H](O)C2)no1 : Mtb heat-shock: 14.74%; LdMetRS: 20%
- NCC(c1ccccc1)N1CCc2sccc2C1 (configuration not stated) : Mtb heat-shock: 4.411%; LdMetRS: 17.61%
- Cc1csc(C2CCCCN2C(=O)c2cnn3ccc(C)nc23)n1 (configuration not stated) : Mtb heat-shock: 0.68%; LdMetRS: 12.24%
- [H][C@@]12COC[C@@H](C(=O)NC)[C@]1([H])CN(C(=O)c1ccc(CC)cc1)C2 : Mtb heat-shock: -16.55%
- CCn1cc(-c2cc(C(=O)N3CCOCC3)c3cc(Cl)ccc3n2)cn1 : Mtb heat-shock: -16.38%; LdMetRS: 10.84%
- C[C@@H]1CN(Cc2ccccc2)CCN1C(=O)NCc1nccs1 : Mtb heat-shock: -9.962%; LdMetRS: 19.93%
- [H][C@]12CC[C@]([H])(CN(c3nccnc3OC)C1)N(CC=C(C)C)C2=O : Mtb heat-shock: -19.62%